PubChem BioAssay AID652272 | Drosophila RNAi Screening Center – 2013

- Aim: 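Finding fly genes that regulate Hedgehog signal transduction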 (primary screen)
- System: Drosophila clone 8 (Cl8) cells
- Reagents: long dsRNA against Drosophila genes
- Detection: 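Firefly light from a Hedgehog-responsive ptc promoter reporter and Renilla reference light, both read on a plate reader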
- Direction: firefly Hh reporter signal: higher = more ptc reporter light; Renilla reference signal: higher = more Renilla control light
- Hit rule: 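Hit when the z-score averaged over two replicates is under -2 or over +3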
- Calls: active = hit: reporter lowered or raised; inactive = not a hit
The deposit covers about 21,000 reagents; below is a random part of those with a known target gene and a result. Of all reagents, 503 (2.4%) are marked active. 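Raw plate light values, not normalised; calls rest on replicate z-scores that were not deposited; hits include reporter decreases as well as increases.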 Reagents against one gene are numbered here. A plus sign joins genes that one reagent is predicted to hit. The record does not give: the amount of reagent, the time to read-out.

gene | reagent no. | firefly Hh reporter signal, replicate 1 | firefly Hh reporter signal, replicate 2 | firefly Hh reporter signal, replicate 3 | Renilla reference signal, replicate 1 | Renilla reference signal, replicate 2 | call
CG8012 | 1 | 46033 | 94864 | – | 2753 | 7092 | inactive
eIF4G1 (eukaryotic translation initiation factor 4G1) | 1 | 1.05e5 | 96563 | – | 2061 | 2758 | inactive
CR10102 (pseudo) | 1 | 70938 | 54752 | – | 1937 | 4280 | inactive
CG9702 | 1 | 1.12e5 | 1.39e5 | – | 3557 | 3851 | inactive
Pomp | 1 | 39287 | 52276 | – | 3037 | 3436 | active
CG8545 | 1 | 54857 | 50918 | – | 3065 | 3300 | inactive
mib2 (mind bomb 2) | 1 | 73116 | 34112 | – | 3244 | 1691 | inactive
CG31525 | 1 | 2.70e5 | – | – | 5337 | – | inactive
pdm3 (pou domain motif 3) | 1 | 1.19e5 | 81757 | – | 2893 | 7445 | inactive
pdm3 (pou domain motif 3) | 2 | 1.26e5 | 61744 | – | 3211 | 5643 | inactive
CG13086 | 1 | 1.32e5 | 49420 | – | 3436 | 5540 | inactive
Hsp68 (Heat shock protein 68) | 1 | 5.71e5 | 1.14e5 | – | 29844 | 3282 | inactive
CG9902 | 1 | 84075 | 2.07e5 | – | 3058 | 8024 | inactive
CG18011 | 1 | 60397 | 40973 | – | 3200 | 1747 | inactive
CG18011 | 2 | 84083 | 66467 | – | 1457 | 5076 | inactive
CG7879 | 1 | 60689 | 42359 | – | 3574 | 2272 | inactive
Nepl8 (Neprilysin-like 8) | 1 | 1.28e5 | 63047 | – | 3365 | 3616 | inactive
Acp53Ea (Accessory gland protein 53Ea) | 1 | 91853 | 51880 | – | 2428 | 2844 | inactive
CG9646 | 1 | 76064 | 68137 | – | 2480 | 4118 | inactive

5 of these entries, set out differently.
mib2 (mind bomb 2): firefly Hh reporter signal, replicate 1 = 73116; firefly Hh reporter signal, replicate 2 = 34112; Renilla reference signal, replicate 1 = 3244; Renilla reference signal, replicate 2 = 1691; call = inactive
CG31525: firefly Hh reporter signal, replicate 1 = 2.70e5; Renilla reference signal, replicate 1 = 5337; call = inactive
pdm3 (pou domain motif 3) #1: firefly Hh reporter signal, replicate 1 = 1.19e5; firefly Hh reporter signal, replicate 2 = 81757; Renilla reference signal, replicate 1 = 2893; Renilla reference signal, replicate 2 = 7445; call = inactive
pdm3 (pou domain motif 3) #2: firefly Hh reporter signal, replicate 1 = 1.26e5; firefly Hh reporter signal, replicate 2 = 61744; Renilla reference signal, replicate 1 = 3211; Renilla reference signal, replicate 2 = 5643; call = inactive
CG13086: firefly Hh reporter signal, replicate 1 = 1.32e5; firefly Hh reporter signal, replicate 2 = 49420; Renilla reference signal, replicate 1 = 3436; Renilla reference signal, replicate 2 = 5540; call = inactive

More reagents follow:
gene | reagent no. | firefly Hh reporter signal, replicate 1 | firefly Hh reporter signal, replicate 2 | firefly Hh reporter signal, replicate 3 | Renilla reference signal, replicate 1 | Renilla reference signal, replicate 2 | call
CG43072 | 1 | 98651 | 1.62e5 | – | 3977 | 4809 | inactive
SNCF (SoxNeuro Co-Factor) | 1 | 36898 | 39124 | 44195 | 3362 | 2802 | inactive
5-HT7 (5-hydroxytryptamine (serotonin) receptor 7) | 1 | 80453 | 86918 | – | 1779 | 2226 | inactive
VAChT (Vesicular acetylcholine transporter) | 1 | 55952 | 1.74e5 | – | 11335 | 2677 | inactive
VAChT (Vesicular acetylcholine transporter) | 2 | 1.04e5 | 60452 | – | 3456 | 2155 | inactive
CG12655 | 1 | 82569 | 2.77e5 | – | 2225 | 10459 | inactive
Miga (Mitoguardin) | 1 | 75686 | 1.71e5 | – | 2710 | 6760 | inactive
Tom40 (Translocase of outer membrane 40) | 1 | 68649 | 2.37e5 | – | 2841 | 10477 | inactive
CG5890 | 1 | 5.32e5 | 1.18e5 | – | 27220 | 3364 | inactive
Hs2st (Heparan sulfate 2-O-sulfotransferase) | 1 | 60705 | 59505 | – | 3236 | 2612 | inactive
CG43254 | 1 | 2.03e5 | – | – | 4560 | – | inactive
COX1 (retired record) | 1 | 48355 | 1.64e5 | – | 1191 | 6457 | inactive
CG33758 | 1 | 1.24e5 | 2.46e5 | – | 3440 | 10177 | inactive
CG16790 | 1 | 1.24e5 | 1.35e5 | – | 3427 | 3107 | inactive
CG34125 | 1 | 3.92e5 | 1.40e5 | – | 19432 | 6691 | inactive
CG13051 | 1 | 1.70e5 | – | – | 6509 | 4773 | inactive
Fancl | 1 | 1.16e5 | 1.08e5 | – | 2800 | 3251 | inactive
ValRS-m (Valyl-tRNA synthetase, mitochondrial) | 1 | 64677 | 68282 | – | 6631 | 4579 | inactive
SecS (Sec synthetase) | 1 | 76695 | 1.29e5 | – | 3283 | 3313 | inactive
aqz + CG9837 | 1 | 2.86e5 | – | – | 6852 | – | inactive
CG6685 | 1 | 79675 | 42528 | 55616 | 3309 | 3088 | inactive
CG11249 | 1 | 87525 | 1.28e5 | – | 3461 | 3683 | inactive
nonA-l (nonA-like) | 1 | 78692 | 78921 | – | 1634 | 1993 | inactive
CG15701 | 1 | 54832 | 34386 | – | 1785 | 2820 | inactive
zda (zonda) | 1 | 1.29e5 | 1.05e5 | – | 6157 | 4361 | inactive
CG1344 | 1 | 90210 | 72888 | – | 3803 | 2919 | inactive
betaggt-I (beta subunit of type I geranylgeranyl transferase) | 1 | 1.27e5 | 42973 | – | 2992 | 4648 | inactive
AlkB | 1 | 4.85e5 | 2.21e5 | – | 30231 | 5664 | inactive
eIF3g1 (eukaryotic translation initiation factor 3 subunit g1) | 1 | 95400 | 36327 | – | 2157 | 1632 | inactive
Ugt307A1 (UDP-glycosyltransferase family 307 member A1) | 1 | 1.27e5 | 78641 | – | 3319 | 6086 | inactive
CG16998 | 1 | 54384 | 48731 | – | 6316 | 3600 | inactive
CG12898 | 1 | 71395 | 47596 | – | 1205 | 4649 | inactive
CG13321 | 1 | 1.07e5 | 63485 | – | 2880 | 4412 | inactive
TwdlU (TweedleU) | 1 | 1.11e5 | 1.29e5 | – | 4221 | 3872 | inactive
Cyp6d4 (Cytochrome P450 6d4) | 1 | 1.27e5 | 1.11e5 | – | 6024 | 4721 | inactive
CG2931 | 1 | 90244 | 1.45e5 | – | 3421 | 4300 | inactive
E(spl)m6-BFM (Enhancer of split m6, Bearded family member) | 1 | 5.68e5 | 1.12e5 | – | 29735 | 3514 | inactive
CG13473 | 1 | 84800 | 81515 | – | 3760 | 3168 | inactive
